Measured values: article PMC4935465
Results are given in words; binding and its absence hold for the method and conditions named. Binding seen in cells or lysates may run through a third protein. A yes stands for co-enrichment or nearness to the bait. Other partners may have been found. A no says only that the protein was not detected with the bait. Tags and fused reporters may be left off the sequences shown.

T1: Vps8-HA (Drosophila melanogaster) (UniProt Q9VRX2)
T1 sequence: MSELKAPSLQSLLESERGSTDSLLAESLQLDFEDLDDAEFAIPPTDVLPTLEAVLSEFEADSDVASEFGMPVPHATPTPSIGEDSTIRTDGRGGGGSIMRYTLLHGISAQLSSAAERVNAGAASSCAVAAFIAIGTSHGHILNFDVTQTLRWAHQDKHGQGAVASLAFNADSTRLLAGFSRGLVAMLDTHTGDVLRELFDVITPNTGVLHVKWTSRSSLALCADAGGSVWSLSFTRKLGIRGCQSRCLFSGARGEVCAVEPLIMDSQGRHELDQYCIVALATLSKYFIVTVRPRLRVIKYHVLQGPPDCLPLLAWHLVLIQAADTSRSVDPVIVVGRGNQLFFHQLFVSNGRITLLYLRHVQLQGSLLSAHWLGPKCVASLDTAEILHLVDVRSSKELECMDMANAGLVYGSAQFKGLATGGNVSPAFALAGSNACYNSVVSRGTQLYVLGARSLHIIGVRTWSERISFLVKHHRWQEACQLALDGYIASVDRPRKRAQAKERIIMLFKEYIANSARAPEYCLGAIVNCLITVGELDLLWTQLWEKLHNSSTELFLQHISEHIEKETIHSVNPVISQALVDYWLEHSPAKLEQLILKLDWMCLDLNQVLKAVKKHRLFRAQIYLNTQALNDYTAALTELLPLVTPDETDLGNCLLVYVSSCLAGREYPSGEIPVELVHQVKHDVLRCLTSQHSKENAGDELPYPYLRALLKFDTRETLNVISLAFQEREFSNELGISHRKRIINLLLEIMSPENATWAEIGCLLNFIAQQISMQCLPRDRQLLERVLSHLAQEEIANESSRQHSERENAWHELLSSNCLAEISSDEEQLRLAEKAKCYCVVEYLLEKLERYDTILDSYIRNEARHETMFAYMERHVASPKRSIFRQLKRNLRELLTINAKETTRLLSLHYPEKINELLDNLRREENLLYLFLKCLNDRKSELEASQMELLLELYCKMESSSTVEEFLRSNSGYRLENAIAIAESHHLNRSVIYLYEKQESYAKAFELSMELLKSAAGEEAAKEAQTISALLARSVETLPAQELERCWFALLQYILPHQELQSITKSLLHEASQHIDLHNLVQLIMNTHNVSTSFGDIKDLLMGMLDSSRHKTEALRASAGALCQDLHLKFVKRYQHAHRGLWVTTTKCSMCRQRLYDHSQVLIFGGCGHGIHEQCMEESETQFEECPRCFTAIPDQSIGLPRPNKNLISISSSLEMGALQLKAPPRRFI

B1: Dor/Vps18 (protein, UniProt Q24314 1-1002)
chain: MDTSMPNQPKFLPRIEHNSSGATANSYVATASGNPFETDEEDEIFSRHKMVLRVPSNCTGDLMHLAVSRNWLVCLLGTPERTTLLRFFLPRAIPPGEAVLEKYLSGSGYKITRMFLDPTGHHIIIALVPKSATAGVSPDFLYIHCLESPQAQQLKVRRIEKFKDHEITAVAFNPYHGNESSTGPILLGTSRGLIFETELNPAADGHVQRKQLYDLGLGRPKYPITGLKLLRVPNSSRYIIVVTSPECIYTFQETLKAEERSLQAIFAGYVSGVQEPHCEERKTDLTFSQLRFFAPPNSKYPKQWAWLCGEGIRVGELSIEANSAATLIGNTLINLDFEKTMHLSYGERRLNTPKAFVLTEYHAVLLYADHVRAICLLNQEQVYQEAFDEARVGKPLSIERDELTGSIYVYTVKTVFNLRVTREERNVWRIYLDKGQYELATAHAAEDPEHLQLVLCQRADAAFADGSYQVAADYYAETDKSFEEVCLKFMVLPDKRPIINYVKKRLSRVTTKPMETDELDEDKMNIIKALVIWLIDLYLIQINMPDKDEEWRSSWQTEYDEFMMEAHVLSCTRQNRETVRQLIAEHADPRNMAQFAIAIGDYDEVVAQQLKAECYAEALQTLINQRNPELFYKYAPELITRLPKPTVDALMAQGSRLEVEKLVPTLIIMENREQREQTQRYLEFAIYKLNTTNDAIHNFLLHLYAEHEPKLLMKYLEIQGRDESLVHYDIYYAHKVCTDLDVKEARVFLECMLRKWISAVDLALTFDMKLAKETASRPSDSKIRRKLWLRIAYHDIKGTNDVKKALNLLKECDLLRIEDLLPFFADFEKIDNFKEAICDALRDYNQRIQELQREMAETTEQTDRVTAELQQLRQHSLTVESQDTCEICEMMLLVKPFFIFICGHKFHSDCLEKHVVPLLTKEQCRRLGTLKQQLEAEVQTQAQPQSGALSKQQAMELQRKRAALKTEIEDILAADCLFCGLLISTIDQPFVDDWEQVNVEWE
B2: Car/Vps33A (protein, UniProt Q9Y1I2 1-617)
chain: MFPHLKGHGQRVNLQLLQEAACRELLQQLDRIEGSKVIVLDETMIGPLDLVTRPKLFADRGIRLLALKPELHLPREVANVVYVMRPRVALMEQLAAHVKAGGRAAAGRQYHILFAPRRSCLCVSQLEVSGVLGSFGNIEELAWNYLPLDVDLVSMEMPNAFRDVSVDGDTSSLYQAAVGLVQLQRLYGRIPKIYGKGEFAHRVWEHAKQLGRDERTLYNGDKGVVDQLILLDRSIDLLSPLATQLTYEGLIDEFYGIRQNKLTLPAENFPSDGALPGGGGSGPRVEESQSLLGDTEKKTILLHSGEQLYAELRNKHFNEVTKLLARKAREIHVQMHATSQDKSVQEIKSFVENLLPQLMAQKKATSEHTAIAGLLHEQVNAVRFADDLAAEQEFMVCADIDKPSAYIEDLIACRVELNRVLRLICMQCHAASGFKEKLLNHYKRELVHVYGLEVLLTISNLEKSGLLHLQTESRAYSVLRKTLHLTVDDNVEIEPKDISYVHSFYAPLTARIVEHSLKPLGWQTLKSQINNLPGPTFEDFQAQLVGIGGRHTVTTVSEGSLLNVPRVVLVCFVGGCTFAEIAALRFLAAQEDNNVEFLIATTKVVNKHSFLDSLMSS
B3: Vps16A (protein, UniProt Q9VHG1 1-833)
chain: MPIMYNTGEWFKVRPDYYRKVELATPDWPLDLDLEYMWVEVAPYGGPLAVTRDPTKLVPVKGNARPMIRIFDTTGREMGHILWNHGKLIAMGWSDMEELICIQENATVFVYDMFGREKESYSIGDEASVTKIVEGKVFQSSAGTGVAVMTTSGRVFLKQNSSKTERKLPDIPNSSMNCSCWEIVTEGRNSYCLLGRDREVIKLFPGETVGTITANLFEKPHERIIKISVSYNHQHLALYTNTGLLWLGSVDMRQKYCEFDTGRKDMPLQMEWIMNSDNSEADAVVISYPSYLLIVNRNADRSDFPYDPVMFLVAEMDGVRIITQSSHEIIQRLPKCVENIFAVNSQEPASYLFEAQKKFEEKSYKSDEYLSMCREKIDLAVSECIEAASYEFCPETQKSLLRTAYFGKGFIRNHNPDEYMRIMRILRVLNTLRHERIAMPITFKQFSHLNTEVILSRLVFRKHYAIAIQVAKHLNLPESWILEHWAYHKVMNDPNDTEVARKITEKFKNPSVEGISFCNIASKAHQAGRDDLAIKLLELESRASLHVPLLLKMRKFDRAVGSATQSGDTELITQVLLEMKMHMMLSNLHMTIRDHPLALNIYKKIMRESNRAGLYGIYNTEDDQKAIAEYHFQNAIETEGLESNLSMIGNAYAQGRCTLEAELCADTSRLIKLQKTLSTKYNVSLNGLSIHETIQELLLIGELKEAERIRSEFKVPDRRFWWLRILTLSSQHKWEELEKLAKSKKSPIGYDPFVEVCLKQDNVMEARKYIPRCRDNRRVVWYMRANLFNEAIDSAFEQRDVHSLFELQKNQAIVNNGTLLSKVCDCIAMLEGK
B4: Vps11 (protein, UniProt Q8SX81 1-830)
chain: MDISVFEWKKVDLFNIIVVPFVKIPNTAEISCYCFPESKSSTEERNIKLVICDKNRNILIYLSNWECITFKSPSTRKAIALCSLTSNNSLATVTPDINNGIHIDIFDLNRLTKKQAAPIIASAYTQPSSTPLCLNADVIDDKLFALAIGLGNGDILLHYGKITKNFSANIRQHTVSGNAVNGIHFDFKTQPLDTTQIMFVTCVQGVYCFMLKEKCIMDTKFVLDNDKGNLNYRSIMCKAGGGEINDSMLVVGRADAVYCYTPEGRGPCFAIEGAKECLAWVGHYLIVGVKNSNLKQNATTLIVLDTENKIIVFQRQFQELFYVISENNFCYIVTNSGDTDACNMLMLEKNSIDVNIRLLVEKHMYNIALRLLHREGYTSSPETALVRFQYGNHLLQKGDFSRATQEFIKTIGFIKPYAVISKLLYSRYNTYLLNYLTEWKKKNESSSCHTRLIECCIKRDQIEHEMQQDDFKHYKSPAKIKHLATLSKMYFACTPSNQVPVEEEHLLHQLLEYGPASLAVDLTTYLNNITFENVKESKNILSFCSILADHNDYCAKMLAKIIEAFPVCDEKLLFYLLVFYFKLWRLDKVTSSFVSDFIKTHSLRMDKTIIVSRLYTFFNVTQRIHGHQKNTGTLHNETIDKCIENLIKNNPDVALNENLSKRSFLMMLKSSCSTEEIKAIKIKPIFKDRLLRSIVDSANELKLVENFNEKIKRSRSMLSLYTNNPIEFRNDKCDICREMLSMQSIYFLCQHSFHEECLNYKSTKRQEKFLCIICKTRNLLSPKHSSNFSCDSSDTIAVLAKIVSIGNKLETKLMIRGRQKSDGVTCNPFN
B5: Vps39 (protein, UniProt Q9VEA2 1-876)
chain: MHQAYSVHSILKQGVQIESIAAYGNHVILGTRSGQLIMYSVDEETGVDMRMFNKNFSRKPITQMEVIASENLLFVLTDLQVQVCDIRRIESNFAFMHSAPDTKGCTLFTMDVDTPKSTTGRVATVIRVCCAIRRRLVFFFWKEDKLNSLELIIELSDVPRTLCWVGHAVCVGFKDEYVVYDISGKAPKKHNLFLTSSSISRDPCICLIRNNMLGISKDSYLVVVDPSQYKESDGINNSTDVRPAAMDSNSSLTPLLWSSPLLDLVWDEPFAVGRVNNAIEVRSLVGKDTLVQTIPELQKTKFLVHADKGTIFAAATSELWCIRMVEIPIQRQQLLQQKKFQLAIELTQISDEPAADRAQTIRQIHMLYAKELFTNKEFSAAMKEFEKAAIDPYDVIRLFPNLVPEPKPGTEDVTVPTSSTPALEDSDLENAYLALIEYLAWARQREVVKLRDTKSSSKSLLEIIDTTLLKCYLQTNDSLVAPLLRLNQCHLEESEKTLKKHNKISELIILYQMKGKHKEALKLLREQASIEGSVLQGRKRTIRYLQELGGDHLPLIFEFADWVLNDNPEEGLTIFTDELIEVESLPRAKVLDFFISKHKALVIPYLEHVITEWKDGNTLLHNVLLKQYREKVQRLLAQQEKGEEVPELIPMRAKLYKMLEESNDYSPDRLLEEFPTNILLEERALILGRLKKHDNVLSIYIHVLGDVAKATAYAEAHYKEDKHIFHTLIKCILIPPTQPLYDGVPLHPDFSQVNREVALEILNTHATRIDPFEIFEHLPDDMPMPQLEKYLEKSIRKMMADKHEMQMMCGFLEAESTRLENALEEQRNISFELNESSVCSECKKRFQTQSAFVRYPNGHIVHLSCHDRLARAAAQQ

These binders were tested against T1, Vps8-HA (Drosophila melanogaster) (assay: affinity purification with mass spectrometry; Vps8-HA precipitated with monoclonal anti-HA agarose from lysates of vps8-HA; vps8^1/Df adult flies (w^1118 as control); 50 mM Tris-HCl pH 7.5, 150 mM NaCl, 0.5 M EDTA (so in the source), 0.5% Triton X-100; 2 hr at 4°C; tryptic digestion, LC-MS/MS).

binding | Binder
binds | B1
binds | B2
binds | B3
no binding | B4
no binding | B5
